Data as given in publication PMC6199744, “Development of Chemical Proteomics for the Folateome and Analysis of the Kinetoplastid Folateome” (ACS Infectious Diseases, 2018).
Further values from the same series stand in other lists.

Test system: L. major lysate proteins
Test: Multitargeted bead mixture chemoproteomics, single concentration competition, proteome-wide
Type: binding
Details: for fold change: vehicle control = 1

## CCCCCCOc1ccc(Cc2cnc(N)nc2N)cc1 [compound 1]
Protein LMJF.11.0350 14-3-3 PROTEIN, PUTATIVE
  fold change: 1.09
Protein LMJF.11.0630 AMINOPEPTIDASE, PUTATIVE,METALLO-PEPTIDASE, CLAN MF, FAMILY M17
  fold change: 1.14
Protein LMJF.11.1160 PROTEIN TRANSPORT PROTEIN SEC31, PUTATIVE
  fold change: 1.08
Protein LMJF.12.0030 […]-1 SUBUNIT, PUTATIVE
  fold change: 1.11
Protein LMJF.12.0530 GLUCOSE-6-PHOSPHATE ISOMERASE
  fold change: 1.66
Protein LMJF.12.0670 […] OXIDASE SUBUNIT IV
  fold change: 1.09
Protein LMJF.13.0570 40S RIBOSOMAL PROTEIN S12, PUTATIVE
  fold change: 1.01
Protein LMJF.13.1190 ADENYLOSUCCINATE SYNTHETASE, PUTATIVE
  fold change: 0.99
Protein LMJF.13.1660 CHAPERONIN TCP20, PUTATIVE
  fold change: 0.94
Protein LMJF.14.0190 HYPOTHETICAL PROTEIN, CONSERVED
  fold change vs vehicle control: 0.92
Protein LMJF.14.0460 CYSTATHIONINE BETA-LYASE-LIKE PROTEIN
  fold change: 0.76
Protein LMJF.14.0680 FATTY ACID ELONGASE, PUTATIVE
  fold change: 1.11
Protein LMJF.14.1160 ENOLASE
  fold change: 0.99
Protein LMJF.14.1440 HY[…], CONSERVED
  fold change: 1.02
Protein LMJF.15.0190 HYPOTHETICAL PROTEIN, CONSERVED
  fold change: 0.96
Protein LMJF.15.1160 TR[…]
  fold change: 1.03
Protein LMJF.15.1380 NUCLEOLAR RNA BINDING PROTEIN, PUTATIVE
  fold change vs vehicle control: 0.93
Protein LMJF.16.0760 TRANSALDOLASE, PUTATIVE
  fold change: 1.14
Protein LMJF.16.0940 DYNEIN LIGHT CHAIN, PUTATIVE
  fold change: 1.13
Protein LMJF.17.0081 […] 1-ALPHA
  fold change: 1.13
Protein LMJF.17.0980 HYPOTHETICAL PROTEIN, CONSERVED
  fold change: 0.98
Protein LMJF.18.0210 HYPOTHETICAL PROTEIN, CONSERVED
  fold change: 1.36
Protein LMJF.18.0580 PEROXISOMAL ENOYL-COA HYDRATASE, PUTATIVE
  fold change: 0.93
Protein LMJF.18.0680 CITRATE SYNTHASE, PUTATIVE
  fold change: 0.9
Protein LMJF.18.0740 ELONGATION FACTOR TU, PUTATIVE
  fold change: 0.95
Protein LMJF.18.1010 DYNEIN LIGHT CHAIN 2B, CYTOPLASMIC, PUTATIVE
  fold change: 0.95
Protein LMJF.18.1210 PROLYL-TRNA SYNTHETASE, PUTATIVE,BI[…]-TRNA SYNTHETASE, PUTATIVE
  fold change vs vehicle control: 1.06
Protein LMJF.18.1380 PYRUVATE DEHYDROGENASE E1 COMPONENT ALPHA SUBUNIT, PUTATIVE
  fold change: 0.81
Protein LMJF.19.0100 FIBRILLARIN, PUTATIVE
  fold change: 0.96
Protein LMJF.19.0710 GLYCOSOMAL MALATE DEHYDROGENASE
  fold change vs vehicle control: 0.97
Protein LMJF.19.0750 HY[…], CONSERVED
  fold change: 1.02
Protein LMJF.19.0995 4-COUMARATE:COA LIGASE-LIKE PROTEIN
  fold change: 1.4
Protein LMJF.19.1010 HY[…], CONSERVED
  fold change: 1.43
Protein LMJF.19.1420 CYSTEINE PEPTIDASE A (CPA)
  fold change: 0.49
Protein LMJF.19.1560 INOSINE-5'-MONOPHOSPHATE DEHYDROGENASE
  fold change: 1.12
Protein LMJF.19.1620 POTASSIUM VOLTAGE-GATED CHANNEL, PUTATIVE
  fold change vs vehicle control: 0.91
Protein LMJF.21.0280 HY[…], CONSERVED
  fold change: 1.04
Protein LMJF.21.1090 T-COMPLEX PROTEIN 1, DELTA SUBUNIT, PUTATIVE
  fold change: 0.97
Protein LMJF.21.1552 RNA HELICASE, PUTATIVE
  fold change vs vehicle control: 0.96
Protein LMJF.21.1710 […] OXIDASE SUBUNIT VI, PUTATIVE
  fold change: 0.99
Protein LMJF.21.1830 […] 5 SUBUNIT, PUTATIVE
  fold change: 1.18
Protein LMJF.22.0420 40S RIBOSOMAL PROTEIN S15, PUTATIVE
  fold change: 1.16
Protein LMJF.22.0570 […] SUBUNIT 1, PUTATIVE
  fold change: 1.02
Protein LMJF.22.1360 FARNESYL PYR[…]
  fold change: 1.16
Protein LMJF.22.1450 CYCLOPHILIN 6, PUTATIVE
  fold change: 0.85
Protein LMJF.23.0040 PEROXIDOXIN
  fold change: 1.12
Protein LMJF.23.0200 ENDORIBONUCLEASE L-PSP (PB5), PUTATIVE
  fold change: 0.93
Protein LMJF.23.0560 KINESIN, PUTATIVE
  fold change: 0.97
Protein LMJF.25.1710 PYRUVATE DEHYDROGENASE E1 BETA SUBUNIT, PUTATIVE
  fold change: 0.8
Protein LMJF.26.0280 HY[…], CONSERVED
  fold change: 1.17
Protein LMJF.26.0830 […], PUTATIVE
  fold change: 0.84
Protein LMJF.27.0190 […] 7 SUBUNIT, PUTATIVE
  fold change: 1.07
Protein LMJF.27.0560 PROTEIN KINASE, PUTATIVE,CDC2-RELATED KINASE, PUTATIVE
  fold change: 1.08
Protein LMJF.27.0760 GTP-binding protein homologue
  fold change: 0.91
Protein LMJF.27.0930 ISOVALERYL-COA DEHYDROGENASE, PUTATIVE
  fold change: 1.18
Protein LMJF.27.1260 T-COMPLEX PROTEIN 1, BETA SUBUNIT, PUTATIVE
  fold change: 0.99
Protein LMJF.27.1300 HY[…], CONSERVED
  fold change: 1.06
Protein LMJF.27.1390 60S ACIDIC RIBOSOMAL SUBUNIT PROTEIN, PUTATIVE
  fold change: 1.12
Protein LMJF.27.2330 GTP BINDING PROTEIN, PUTATIVE
  fold change: 1
Protein LMJF.28.0960 40S RIBOSOMAL PROTEIN S14
  fold change: 1.2
Protein LMJF.28.0980 P27 PROTEIN, PUTATIVE
  fold change vs vehicle control: 0.95
Protein LMJF.28.2260 […] PROTEIN, PUTATIVE
  fold change: 1.03
Protein LMJF.28.2420 2-OXOGLUTARATE DEHYDROGENASE, E2 COMPONENT, DIHYDROLIPOAMIDE SUCCINYLTRANSFERASE, PUTATIVE
  fold change: 0.95
Protein LMJF.28.2430 VACUOLAR ATP SYNTHASE SUBUNIT B, PUTATIVE
  fold change: 0.83
Protein LMJF.28.2460 RIBOSOMAL PROTEIN S29, PUTATIVE
  fold change: 1.24
